Measurements: PubChem BioAssay AID1671190 (National Center for Advancing Translational Sciences (NCATS), 2021)
Among all 580,000 compounds or so, about 6,100 (1.1%) were called active. Inconclusive means that the source gave no clear call. Such entries were picked first, then a sample of the others. The call rests on the fitted dose curve; in most records, active means well fitted inhibition curve with a large enough effect; inconclusive means small, poorly fitted or top-dose-only effect, or another doubt; inactive means no such curve, though single readings can be large or run the other way. Potencies of inconclusive entries are doubtful fits and often do not repeat.

Amino acid sequences for entries named in this document (tags omitted). A change or cut given only in a name is not applied to a line headed by its entry.
UniProt P18054: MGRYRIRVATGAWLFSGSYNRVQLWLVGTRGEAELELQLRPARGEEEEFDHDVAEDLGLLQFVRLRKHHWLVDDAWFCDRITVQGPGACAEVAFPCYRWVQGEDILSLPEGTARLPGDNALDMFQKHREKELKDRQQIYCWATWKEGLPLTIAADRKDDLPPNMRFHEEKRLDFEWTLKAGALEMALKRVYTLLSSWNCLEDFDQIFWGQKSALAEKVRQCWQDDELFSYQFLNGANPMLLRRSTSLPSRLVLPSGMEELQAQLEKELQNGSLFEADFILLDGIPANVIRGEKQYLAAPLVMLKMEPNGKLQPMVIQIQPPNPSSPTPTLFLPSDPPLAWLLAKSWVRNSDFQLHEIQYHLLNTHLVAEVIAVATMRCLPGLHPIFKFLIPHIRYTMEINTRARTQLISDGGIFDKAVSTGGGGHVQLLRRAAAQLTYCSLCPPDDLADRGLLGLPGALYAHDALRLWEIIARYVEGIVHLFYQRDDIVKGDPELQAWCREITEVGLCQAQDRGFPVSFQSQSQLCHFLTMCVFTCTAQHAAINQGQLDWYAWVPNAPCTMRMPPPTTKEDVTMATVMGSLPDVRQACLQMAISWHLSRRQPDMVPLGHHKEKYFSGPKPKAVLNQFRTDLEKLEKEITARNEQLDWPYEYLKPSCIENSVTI

These compounds were tested against Polyunsaturated fatty acid lipoxygenase ALOX12 (Homo sapiens) (UniProt P18054) (assay: Primary qHTS assay for inhibitors of human arachidonate 12S-lipoxygenase (ALOX12): Round 2). Conditions: purified 12hLO, xylenol orange hydroperoxide absorbance; series mostly up to 108 µM.
How it was run: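 Purified human 12hLO at 150 nM in 25 mM Hepes, 0.01% Triton X-100, pH 7.0, preincubated 15 min at room temperature with compound. Reaction started with 40 uM arachidonic acid, 30 min at room temperature. Hydroperoxide measured by Fe-xylenol orange, 573/405 nm absorbance ratio.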
Potency means the concentration at half of the fitted maximal effect.

Compound | Potency
C/C=C/C=C/C(=O)NC(C)c1cc(F)ccc1F (stereo not given) | inconclusive: 112 µM [inhibitor, partial curve, poor fit]
CCCn1cc(CNc2cc(CC)nc3c(C)c(C)nn23)cn1 | inconclusive: 10 µM [inhibitor, full curve, poor fit]
CCCCN(CCCC)S(=O)(=O)c1ccc(N2CCCC2=O)c([N+](=O)[O-])c1 | inactive
CCCn1nccc1C(=O)N1CCCC(c2[nH]ncc2Cc2ccccc2)C1 (stereo not given) | inactive
COc1ccccc1CCN1C(=S)NC(C)(C)CC1(C)O (stereo not given) | inconclusive: 44.7 µM [inhibitor, partial curve, poor fit]
C=C(C)CC1NC2CC(C)(C)C1c1c(Br)cccc12 (stereo not given) | inconclusive: 0.708 µM [inhibitor, full curve, poor fit]
Cn1c(-c2ccc3c(c2)OCO3)cnc1NCc1ccc(Cl)cc1 | inconclusive: 5.62 µM [inhibitor, full curve, poor fit]
CSc1ccc(Cl)c(C(=O)NCc2ccco2)c1 | inactive
CCN(CC)c1cc(C)c2cc(NC(=O)c3ccccc3OC)ccc2n1 | inactive
CCSc1nc(-c2ccccc2)c(C#N)c(=O)[nH]1 | inactive
CC(=O)CC(=O)N(CCC[N+](C)(C)C)CCC[N+](C)(C)C | inconclusive: 5.01 µM [inhibitor, full curve]
CCn1nc(NC(=O)C(C)C)c2cc3cccc(C)c3nc21 | inconclusive: 100 µM [inhibitor, partial curve, poor fit]
CCCCNC(=O)CC(c1cccc2c1OCO2)c1c[nH]c2c(CC)cccc12 (stereo not given) | inconclusive: 20 µM [inhibitor, full curve]
Cc1oc(C(C)(C)C)c(CN2CCCC2)c1C(=O)O | inconclusive: 31.6 µM [inhibitor, single point]
O=[N+]([O-])c1cccc(-c2noc([C@@H]3C[C@@H](O)CN3Cc3cccs3)n2)c1 | inconclusive: 17.8 µM [inhibitor, full curve, poor fit]
CN(CC(=O)Nc1cccc(F)c1)C(=O)/C=C/c1cn(Cc2ccccc2)nc1-c1cccnc1 | inconclusive: 89.1 µM [inhibitor, partial curve, poor fit]
Cc1ccc(C(=O)NCc2occc2C(=O)O)o1 | inconclusive: 28.2 µM [inhibitor, partial curve, poor fit]
Cc1cc(C)c2[nH]c(=O)c(CN(Cc3ccco3)C(=S)NCC3CCCO3)cc2c1 (stereo not given) | inactive
Cc1cc(C)c(OCCNC(=O)c2ccccc2Sc2ccccc2C#N)c(C)c1 | inactive
Cc1cccc(CN2CCN(C(=O)c3cnc4ccccn4c3=O)CC2=O)c1 | inactive
CCn1c(=O)c2sccc2n2c(CCCC(=O)N3CCN(c4cc(Cl)ccc4C)CC3)nnc12 | inconclusive: 7.08 µM [inhibitor, partial curve, poor fit]
Cc1nc(N)c(C(N)=O)[nH]1 | inactive

Compound | Potency
COc1ccc(/C=C2\C(=O)ON=C2c2ccccc2)cc1 | inconclusive: 4.47 µM [inhibitor, full curve, poor fit]
CCCOc1ccc(C(=O)NC(=S)Nc2nc3ccccc3s2)cc1 | inconclusive: 7.08 µM [inhibitor, full curve]
O=C(c1cc2ccccc2[nH]1)N1CCC(N2CC(OCC3CC3)C23CCOCC3)CC1 (stereo not given) | inactive
Cc1nc2ccccn2c1-c1ccnn1S(=O)(=O)c1ccc(F)cc1 | inconclusive: 44.7 µM [inhibitor, partial curve, poor fit]
Cc1cccc(C)c1NC(=S)NN(Cc1ccccc1)c1ccccc1 | inactive
Cc1nc(-c2cccc(S(=O)(=O)N3CCCC(C)C3)c2)cs1 (stereo not given) | inconclusive: 44.7 µM [inhibitor, single point]
O=C(O)c1ccc(N/N=C/c2ccc(-c3ccccc3Cl)o2)cc1 | inconclusive: 44.7 µM [inhibitor, partial curve, poor fit]
COc1ccc(-c2nnc(SCC(=O)NCc3ccc(C)cc3)nc2-c2ccc(OC)c(OC)c2)cc1OC | inactive
CC(=N/O)/C(C)=N\NC(=O)c1ccccn1 | inactive
N#Cc1ccc2nc([C@H]3CCN(Cc4ccccn4)C3)[nH]c2c1 | inactive
Cc1cccc2cc(CN(C(=S)NCC(C)C)C3CCCC3)c(=O)[nH]c12 | inconclusive: 39.8 µM [inhibitor, partial curve, poor fit]
N#CC1=C(N)SC(N)=C(C#N)C1Cc1ccccc1 | inconclusive: 35.5 µM [inhibitor, partial curve]
COc1ccccc1N1CCN(c2ncccc2-c2nc(-c3ccc(Cl)cc3)no2)CC1 | inconclusive: 35.5 µM [inhibitor, partial curve, poor fit]
CSCC[C@H](NC(=O)[C@H](C)n1nnc2ccccc2c1=O)C(=O)O | inconclusive: 35.5 µM [inhibitor, partial curve, poor fit]
CC(C)COC(=O)NCCOC(=O)Nc1cccc(Cl)c1 | inconclusive: 126 µM [inhibitor, single point]
CCc1nc(N)nc(N)c1-c1ccc(N(C)Cc2ccccc2)c([N+](=O)[O-])c1 | inconclusive: 79.4 µM [inhibitor, partial curve, poor fit]
O=C1c2ccccc2NC(c2cccc(F)c2)N1Cc1ccco1 (stereo not given) | inconclusive: 126 µM [inhibitor, partial curve, poor fit]
O=C(O)c1cnn2c(-c3ccc(F)cc3)ccnc12 | inconclusive: 3.16 µM [inhibitor, full curve, poor fit]
O=C(NCCc1c[nH]c2ccccc12)C(=O)Nc1cc2c3c(c1)CC(=O)N3CCC2 | inconclusive: 100 µM [inhibitor, single point]
COc1ccc(-c2cn(-c3ccc(C)cc3)c(=O)n2CC(=O)Nc2cccc(F)c2)cc1 | inconclusive: 12.6 µM [inhibitor, full curve, poor fit]
COc1ccc(-c2nnc3ccc(SCC(=O)N4CCN(c5ccccc5)CC4)nn23)cc1 | active: 31.6 µM
Nc1nc2c(ncn2[C@@H]2O[C@H](COP(=O)(O)OP(=O)(O)OP(=O)(O)O)[C@@H](O)C2O)c(=O)[nH]1 (stereo not given in full) | inconclusive: 3.16 µM [inhibitor, full curve, poor fit]

Compound | Potency
CCOc1cc(N2CCOCC2)c(OCC)cc1NC(=O)CSc1cccc[n+]1[O-] | inconclusive: 35.5 µM [inhibitor, partial curve, poor fit]
OC(c1ccc(F)c(F)c1)c1nc(-c2ccoc2)cs1 (stereo not given) | inconclusive: 79.4 µM [inhibitor, partial curve, poor fit]
CN(CC(=O)Nc1ccc(Cl)cc1)C(=O)c1cccc(S(=O)(=O)N2CCN(Cc3ccccc3)CC2)c1 | inconclusive: 141 µM [inhibitor, single point]
CCOc1ccccc1C(=O)NCC(=O)N1CCN(c2ccccn2)CC1 | inactive
Cc1cc(C)n(C(CC(=O)O)C(=O)O)n1 (stereo not given) | inconclusive: 39.8 µM [inhibitor, partial curve, poor fit]
CC(=O)Oc1ccc(-c2ccc(C(=O)OCC(=O)c3c(N)n(C)c(=O)n(C)c3=O)cc2)cc1 | inactive
Cc1c(CC(=O)NCCCn2ccnc2)c(=O)oc2cc(O)ccc12 | inconclusive: 39.8 µM [inhibitor, partial curve, poor fit]
Cc1csc(S(=O)(=O)N2CCOC(CCc3ccccc3)C2)c1 (stereo not given) | inconclusive: 12.6 µM [inhibitor, full curve]
CCOc1ccc(NC(=O)CSc2nnc(-c3ccccc3)n2N)cc1 | inactive
CC1CCc2[nH]c3ccc(C(=O)NC4CCCC4)cc3c2C1 (stereo not given) | inconclusive: 5.62 µM [inhibitor, full curve]
Cc1cc(Br)c2c(c1)[C@](O)(c1cn(C)c3ccccc13)C(=O)N2C | inactive
COc1cc2c(cc1OC)/C(=C/c1ccc(Br)cc1)C(=O)OC2 | inconclusive: 0.355 µM [inhibitor, full curve, poor fit]
COc1ccc(O)c(CN2CCC(n3nccc3NC(=O)c3ccccc3Cl)CC2)c1 | inconclusive: 79.4 µM [inhibitor, partial curve, poor fit]
O=C(CN(Cc1ccco1)C(=O)c1ccc([N+](=O)[O-])cc1)Nc1ccccc1C(F)(F)F | inconclusive: 12.6 µM [inhibitor, partial curve, poor fit]
Cc1c(C(=O)Nc2nccs2)[nH]c2c1C(=O)CCC2 | inconclusive: 35.5 µM [inhibitor, full curve, poor fit]
CC(=O)N1c2c(cc(Br)cc2S(=O)(=O)Nc2c(C)n(C)n(-c3ccccc3)c2=O)CC1C (stereo not given) | inconclusive: 126 µM [inhibitor, single point]
O=C(CN1C(=O)NC2(CCCCCC2)C1=O)c1ccc(OC(F)F)cc1OC(F)F | inconclusive: 35.5 µM [inhibitor, partial curve, poor fit]
CC(=O)N1CCN(c2ccc(NC(=O)COc3ccc(Cl)cc3Cl)cc2)CC1 | inconclusive: 50.1 µM [inhibitor, partial curve, poor fit]
COC/C=C/C1=CC2=CC(=O)C(C)(OC(=O)c3cnc4ccccc4n3)C(=O)C2=CN1Cc1ccco1 (stereo not given) | inconclusive: 89.1 µM [inhibitor, partial curve, poor fit]
CCOc1cccc(CC(=O)N2CCc3c([nH]c4ccccc34)C2c2ccc(Cl)cc2)c1OCC (stereo not given) | inactive
C/C(=N\NC(=O)COc1cccc(Cl)c1)c1ccc2c(c1)OCCO2 | inactive

3 entries already listed, arranged by length of the SMILES, rising:
Compound | Potency
CC1CCc2[nH]c3ccc(C(=O)NC4CCCC4)cc3c2C1 (stereo not given) | inconclusive: 5.62 µM [inhibitor, full curve]
Cc1cc(Br)c2c(c1)[C@](O)(c1cn(C)c3ccccc13)C(=O)N2C | inactive
CCOc1cccc(CC(=O)N2CCc3c([nH]c4ccccc34)C2c2ccc(Cl)cc2)c1OCC (stereo not given) | inactive
